Source: PubChem BioAssay AID1053208 (Peter MacCallum Cancer Centre, 2014)
Shown is one part, drawn at random, of about 17,000 reagents tested. Of all reagents, 788 (4.7%) got an active call. 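Calls rest on z-score classes alone; an extra cut-off of viability at most 70% of control was not applied to them.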 A reagent listed more than once was tested more than once; the source does not tell the runs apart. Not all columns of the deposit are shown.

Aim: 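Genes whose silencing cuts survival of bone tumour cells only with doxorubicin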 (primary screen)
Cells: mouse osteosarcoma cells, early-passage culture from an engineered mouse model of fibroblastic bone tumour
Knock-down reagent: siRNA pool against mouse genes, 40 nM
Duration: about 120 h (48 h before drug, then 72 h with drug)
Conditions: doxorubicin 100 nM for 72 h, roughly 30-40% inhibitory dose
Read-out: 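Luminescent ATP signal taken as viability with or without 100 nM doxorubicin for 72 h; mean of two wells set against non-targeting siRNA and turned into robust z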
Direction: viability z-score with doxorubicin: higher = more viable cells under doxorubicin; viability z-score without drug: higher = more viable cells with knock-down alone; z-score of drug to no-drug ratio: higher = less drug sensitisation by knock-down
Rule for the call: 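a pool counts as active when its viability z-score with doxorubicin is -2 or below and its z-score without drug lies between -2 and 2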

Gene | PubChem SID | combined z-score class | viability z-score with doxorubicin | viability z-score without drug | z-score of drug to no-drug ratio | Call
Chi3l1 | SID152324467 | no change with or without drug | -1.91 | 0.51 | -2.14 | inactive
Or2y1g | SID152263609 | low cell count without drug only | -1.8 | -2.19 | -0.34 | inactive
Man2b2 | SID152306489 | no change with or without drug | 1.01 | 0.34 | 0.9 | inactive
1700025G04Rik | SID152286834 | no change with or without drug | -0.9 | 1.52 | -1.69 | inactive
Tmem72 | SID152336745 | no change with or without drug | 0.9 | 1.35 | 0.11 | inactive
Zfp207 | SID152298892 | no change with or without drug | -0.67 | -1.18 | 0.22 | inactive
Thap7 | SID152287001 | no change with or without drug | 0.9 | 0.51 | 0.67 | inactive
9330132A10Rik | SID152325794 | low cell count with doxorubicin only | -2.36 | -1.52 | -1.46 | active
Plat | SID152323775 | high cell count without drug only | 1.35 | 2.19 | 0 | inactive
Zfp775 | SID152311653 | no change with or without drug | -1.57 | -0.67 | -1.12 | inactive
Caps2 | SID152293849 | no change with or without drug | 0.45 | -0.17 | 0.67 | inactive
Xylb | SID152282562 | no change with or without drug | -1.12 | -0.51 | -0.79 | inactive
Nr2c1 | SID152333251 | no change with or without drug | 0.45 | 1.01 | -0.11 | inactive
Nrl | SID152337183 | no change with or without drug | 1.01 | -0.51 | 1.57 | inactive
Erp29 | SID152313757 | no change with or without drug | 0 | 0.67 | -0.34 | inactive
Rccd1 | SID152304136 | low cell count with doxorubicin only | -2.59 | -0.34 | -2.47 | active
Ranbp2 | SID152325278 | no change with or without drug | 0.67 | 1.01 | 0.11 | inactive
F3 | SID152322594 | no change with or without drug | -0.22 | -0.17 | 0 | inactive
Huwe1 | SID152312465 | no change with or without drug | 1.8 | 1.18 | 1.12 | inactive
Ppp6r2 | SID152277416 | no change with or without drug | 0.11 | 0 | 0.22 | inactive
Grk3 | SID152318274 | no change with or without drug | -0.67 | 0.51 | -0.9 | inactive
Grk3 | SID152318274 | no change with or without drug | 0.56 | -0.17 | 0.79 | inactive
Dipk1b | SID152276434 | no change with or without drug | 0.22 | 0.17 | 0.22 | inactive
Il2ra | SID152308364 | no change with or without drug | -0.79 | -0.17 | -0.56 | inactive
Ints15 | SID152270185 | no change with or without drug | 0 | 0.17 | 0 | inactive
Cct3 | SID152281188 | no change with or without drug | 1.12 | -0.84 | 2.02 | inactive
Thrb | SID152325261 | no change with or without drug | -1.46 | -0.51 | -1.12 | inactive
Dlx1 | SID152289344 | no change with or without drug | -0.56 | 1.01 | -1.12 | inactive
Bcl2l14 | SID152300012 | no change with or without drug | -0.22 | -0.51 | 0.22 | inactive
Krtap6-2 | SID152282722 | no change with or without drug | 0.34 | 0.84 | -0.11 | inactive
Ppp2r5c | SID152280161 | high cell count with doxorubicin only | 2.02 | 0 | 2.25 | inactive
Apobr | SID152336737 | no change with or without drug | -0.67 | 0.84 | -1.12 | inactive
Sycp3 | SID152277282 | high cell count without drug only | 1.46 | 2.02 | 0.22 | inactive
Pax4 | SID152335854 | no change with or without drug | 1.35 | -0.17 | 1.69 | inactive
Cyp17a1 | SID152265630 | no change with or without drug | 0.45 | -0.67 | 1.12 | inactive
Pramel12 | SID152305576 | no change with or without drug | 1.35 | 0.34 | 1.24 | inactive
Mtrf1 | SID152283040 | no change with or without drug | -1.12 | 0 | -1.12 | inactive
Ablim2 | SID152281894 | no change with or without drug | -0.22 | -0.17 | 0 | inactive
Tmprss4 | SID152303988 | no change with or without drug | 0.45 | 0.84 | 0 | inactive
Sele | SID152277963 | no change with or without drug | -0.11 | 0.84 | -0.56 | inactive
Cd300c | SID152289997 | no change with or without drug | -0.67 | 0.84 | -1.12 | inactive
Mrps9 | SID152316324 | no change with or without drug | -1.69 | -1.52 | -0.67 | inactive
Vmn1r190-ps | SID152283736 | low cell count with doxorubicin only | -2.14 | -0.17 | -2.02 | active
Cxcl14 | SID152301551 | no change with or without drug | 0.45 | 0.51 | 0.22 | inactive
Lrrc40 | SID152323199 | no change with or without drug | -1.12 | -1.35 | -0.11 | inactive
Col16a1 | SID152302118 | no change with or without drug | -0.22 | -0.17 | 0 | inactive
Gpha2 | SID152296544 | no change with or without drug | 1.12 | 0.17 | 1.12 | inactive
Thra | SID152270275 | no change with or without drug | -0.34 | 0.51 | -0.56 | inactive
Phf8 | SID152291105 | no change with or without drug | -1.57 | -0.51 | -1.24 | inactive
Trir | SID152273151 | no change with or without drug | -0.45 | -0.51 | 0 | inactive

Just “z-score of drug to no-drug ratio”, for 8 of the entries above:
1700025G04Rik [SID152286834] = -1.69
Tmem72 [SID152336745] = 0.11
Zfp207 [SID152298892] = 0.22
Thap7 [SID152287001] = 0.67
9330132A10Rik [SID152325794] = -1.46
Plat [SID152323775] = 0
Zfp775 [SID152311653] = -1.12
Caps2 [SID152293849] = 0.67
